Test results reported in patent publication US20060142247A1, “Tricyclic heterocycles” (priority 2004, published 2006).
Some results were stated once for a whole list of compounds, not compound by compound. For at least one compound, name, drawing or mass did not settle the structure.

Tested on: HCT 116 cells
Test: Viability assay HCT 116 cells (CellTiter-Glo)
Assay type: cell-based
Settings: HCT 116 human colon carcinoma cells, 5 days incubation, CellTiter-Glo luminescence
Method: Viability Assay—HCT 116 Cells
A viability assay was performed using the CellTiter-Glo® Luminescent Cell Viability Assay (see Promega Corporation's Technical Bulletin No. 288, pp. 1-11 [revised 2/04] which is hereby incorporated by reference in its entirety). This assay is a homogeneous method of determining the number of viable cells in culture based on quantitation of the ATP present, an indicator of metabolically active cells. The assay is designed for use with multiwell formats, making it ideal for automated high-throughput screening (HTS), cell proliferation and cytotoxicity assays. The homogeneous assay procedure involves adding a single reagent (containing luciferase, luciferan substrate, and buffer) directly to cells cultured in serum-supplemented medium. Cell washing, removal of medium and multiple pipetting steps are not required. […]
HCT 116 cells (human colon carcinoma, ATCC-No. CCl-247) were cultivated in RPMI 1640 medium with GlutaMAX™ I (cell culture media that contains L-Alanyl-L-Glutamine [a stabilized a form/source of L-Glutamine] from Invitrogen, Cat-No. 61870-010), 2.5% Fetal Calf Serum (FCS, Sigma Cat-No. F4135 (FBS)); 100 Units/ml penicillin/100 μg/ml streptomycin (=Pen/Strep from Invitrogen Cat. No. 15140). […] After 45 minutes the luminescent signal was measured in Victor 2, (scanning multiwell spectrophotometer, Wallac). […]

Compound | IC50 [nM]
CCN1C(=O)C(C)(C)c2cc3nc(-c4n[nH]c5ccc(C(=O)N6CCN(C)CC6)cc45)[nH]c3cc21 [Example 90, 5-Ethyl-7,7-dimethyl-2-[5-(4-methyl-piperazine-1-carbonyl)-1H-indazol-3-yl]-5,7-dihydro-3H-imidazol[4,5-f]indol-6-one] | 100 to 1000
CCN1C(=O)C(C)(C)c2cc3nc(-c4n[nH]c5ccc(C(=O)N6CCOCC6)cc45)[nH]c3cc21 [Example 91, 5-Ethyl-7,7-dimethyl-2-[5-(morpholine-4-carbonyl)-1H-indazol-3-yl]-5,7-dihydro-3H-imidazol[4,5-f]indol-6-one] | 1000 to 10000
